Series [1] is described as follows: Evaluation by trained and/or certified flavor or fragrance chemists or master perfumers; categorization by commercial prospect. The following applies: for Rating (category of commercial prospect): evaluation by trained flavor or fragrance chemists or master perfumers; for Rating: category of commercial prospect, (A) highest > (B) > (C) > (D) lowest, (E) requires further study.

Series [2] concerns odor evaluation panel. Put plainly: Odor evaluation panel rating of odorants by Rate-All-That-Apply (RATA) method with 55-word odor lexicon, plus intensity and pleasantness. More on the design: species or system human. The following applies: for Floral: mean panelist score for odor label floral (RATA); for Fruity: mean panelist score for odor label fruity (RATA); for Spicy: mean panelist score for odor label spicy (RATA); for Sweet: mean panelist score for odor label sweet (RATA); for Pleasantness: mean panelist score for odor pleasantness.

Counter-ions that a name gives are not always drawn.

Take `OCCSc1ccccn1` [Compound 965, 2-pyridin-2-ylsulfanylethanol]: the “Rating (category of commercial prospect)” value in series [1] is “(B)”. In series [2], the Floral was 0, the Fruity was 0.139, the Spicy is recorded as 0 and the Sweet is 0.

As to `CSC(=NC#N)SC` [Compound 355, bis(methylsulfanyl)methylidenecyanamide], the Rating entry in series [1] is recorded as “(D)”. In addition, in series [2], the Floral is 0, the Fruity came out at 0, the Spicy is reported as 0.438 and the Sweet is reported as 0. For the same compound, the Pleasantness in series [2] was 3.197.

For the compound `CCCCOC(=O)C1=CC(=O)CC(C)(C)O1` [Compound 901, butyl 2,2-dimethyl-4-oxo-3H-pyran-6-carboxylate], in series [1], the “Rating (category of commercial prospect)” value is listed as “(B)”. In addition, in series [2], the Floral worked out at 0, the Fruity is 0.219, the Spicy is given as 0.094 and the Sweet worked out at 1.281. The Pleasantness in series [2] was 5.931.

For `c1cnc2c(c1)CCC2` [Compound 225, 6,7-dihydro-5H-cyclopenta[b]pyridine], the Rating result in series [1] is “(D)”. Moreover, in series [2], the Floral stood at 0, the Fruity amounted to 0.235, the Spicy amounted to 0.118 and the Sweet was 0.529. Besides, in series [2], the Pleasantness turned out to be 5.259.

Regarding `CN(C)CC#N` [Compound 278, 2-(dimethylamino)acetonitrile], the Rating result in series [1] was “(D)”. For the same compound, in series [2], the Floral came to 0.031, the Fruity is on record as 0.062, the Spicy worked out at 0 and the Sweet is given as 0.062. Further, in series [2], the Pleasantness is recorded as 3.147.

Turning to `OCCN1CCCCC1` [Compound 452, 2-piperidin-1-ylethanol], the Rating result in series [1] is given as “(D)”. For the same compound, in series [2], the Floral is 0.212, the Fruity came to 0, the Spicy was found to be 0 and the Sweet is recorded as 0.333. Moreover, the Pleasantness in series [2] is recorded as 4.242.

With `Cc1occc1C(=O)O` [Compound 918, 2-methylfuran-3-carboxylic acid], the “Rating (category of commercial prospect)” value in series [1] was “(D)”. In series [2], the Floral is 0, the Fruity stood at 0.344, the Spicy was 0.031 and the Sweet came out at 1.688. Further, the Pleasantness in series [2] came out at 5.416.

In the case of `CCOC(OCC)C(=O)c1ccccc1` [Compound 366, 2,2-diethoxy-1-phenylethanone], in series [1], the Rating result is listed as “(B)”. Besides, in series [2], the Floral came to 0.943, the Fruity stood at 2.2, the Spicy worked out at 0 and the Sweet amounted to 1.886. The Pleasantness in series [2] was found to be 6.714.

For the compound `Cc1ncsc1CCOC=O` [Compound 7, 2-(4-methyl-1,3-thiazol-5-yl)ethyl formate], the Rating result in series [1] is reported as “(B)”. Further, in series [2], the Floral was 0, the Fruity came out at 0, the Spicy came out at 0.281 and the Sweet turned out to be 0.094. Further, in series [2], the Pleasantness stood at 4.772.

For the compound `COc1cc(OC)nc(N)n1` [Compound 413, 4,6-dimethoxypyrimidin-2-amine], in series [1], the Rating entry is “(A)”. Also, in series [2], the Floral was 0, the Fruity is on record as 0, the Spicy is reported as 0.057 and the Sweet was found to be 0.057. For the same compound, the Pleasantness in series [2] was 4.957.

For the compound `CC1(C)C(=O)C(C)(C)C1=O` [Compound 702, 2,2,4,4-tetramethylcyclobutane-1,3-dione], the “Rating (category of commercial prospect)” value in series [1] was “(D)”. In series [2], the Floral was determined as 0.303, the Fruity is recorded as 0.758, the Spicy is on record as 0.091 and the Sweet is 0.636. Besides, the Pleasantness in series [2] is on record as 4.252.

As for `CC(C)(C)OC(=O)Nc1nccs1` [Compound 472, tert-butyl N-(1,3-thiazol-2-yl)carbamate], in series [1], the Rating entry is listed as “(D)”. Also, in series [2], the Floral was determined as 0.056, the Fruity is listed as 0, the Spicy was 0 and the Sweet worked out at 0.306.

Take `O=C(O)C1=COCCC1` [Compound 801, 3,4-dihydro-2H-pyran-5-carboxylic acid]: in series [1], the “Rating (category of commercial prospect)” value is on record as “(D)”. Moreover, in series [2], the Floral stood at 0, the Fruity is 0.125, the Spicy is reported as 0.094 and the Sweet was determined as 0.156. The Pleasantness in series [2] is 3.706.

As to `CCc1ccc(CO)cc1` [Compound 358, (4-ethylphenyl)methanol], in series [1], the Rating result is on record as “(E)”. Further, in series [2], the Floral is on record as 0.125, the Fruity is listed as 0.062, the Spicy worked out at 0 and the Sweet was 0.438. Besides, the Pleasantness in series [2] was 3.331.

As for `C=C(CC(=O)OCCCC)C(=O)OCCCC` [Compound 665, dibutyl 2-methylidenebutanedioate], in series [1], the “Rating (category of commercial prospect)” value is given as “(D)”. For the same compound, in series [2], the Floral was 0.028, the Fruity is reported as 0.472, the Spicy came out at 0 and the Sweet was 0.75.

`CCOC(=O)Cc1ccc(OCC)cc1` [Compound 864, ethyl 2-(4-ethoxyphenyl)acetate]: the “Rating (category of commercial prospect)” value in series [1] is listed as “(C)”. In series [2], the Floral came to 1.438, the Fruity is given as 0.188, the Spicy is listed as 0.406 and the Sweet is given as 1.312. The Pleasantness in series [2] came to 5.975.

For the compound `NC(=O)c1ccncc1` [Compound 533, pyridine-4-carboxamide], the Rating result in series [1] is listed as “(A)”. In series [2], the Floral was 0.433, the Fruity worked out at 1.467, the Spicy is reported as 0.033 and the Sweet amounted to 1.6. Also, in series [2], the Pleasantness is reported as 6.25.

Consider `CC(C)(C)C1CCCCC1` [Compound 150, tert-butylcyclohexane], for which, in series [1], the Rating result is “(D)”. In addition, in series [2], the Floral amounted to 0.2, the Fruity was found to be 0.233, the Spicy was found to be 0.133 and the Sweet was 0.5. Besides, the Pleasantness in series [2] turned out to be 5.42.

Turning to `CC1CC(=O)OC1=O` (centres unmarked) [Compound 116, 3-methyloxolane-2,5-dione], the Rating result in series [1] was “(D)”. Besides, in series [2], the Floral stood at 0.028, the Fruity is given as 0, the Spicy is 0.306 and the Sweet stood at 0.556.

Regarding `O=C1CCCC(=O)C1` [Compound 594, cyclohexane-1,3-dione], the “Rating (category of commercial prospect)” value in series [1] was “(D)”. Moreover, in series [2], the Floral turned out to be 0, the Fruity was determined as 0, the Spicy amounted to 0 and the Sweet came to 0.111.

On to `C=C1N(C)c2ccccc2C1(C)C` [Compound 741, 1,3,3-trimethyl-2-methylideneindole], for which the “Rating (category of commercial prospect)” value in series [1] was “(B)”. In addition, in series [2], the Floral is recorded as 0, the Fruity amounted to 0, the Spicy is on record as 0.111 and the Sweet stood at 0.111.

Turning to `C1=Cc2cccc3cccc1c23` [Compound 580, acenaphthylene], in series [1], the “Rating (category of commercial prospect)” value was “(D)”. In series [2], the Floral was 0.061, the Fruity came out at 0, the Spicy is given as 0.182 and the Sweet turned out to be 0.182. Also, the Pleasantness in series [2] turned out to be 3.906.

Take `Cc1cc(C)cc(C(C)(C)C)c1` [Compound 896, 1-tert-butyl-3,5-dimethylbenzene]: the “Rating (category of commercial prospect)” value in series [1] is recorded as “(D)”. Moreover, in series [2], the Floral was 0, the Fruity turned out to be 0, the Spicy turned out to be 0.194 and the Sweet is on record as 0.194.

`O=C(O)C#Cc1ccccc1` [Compound 882, 3-phenylprop-2-ynoic acid]: in series [1], the “Rating (category of commercial prospect)” value is “(C)”. Further, in series [2], the Floral worked out at 0.229, the Fruity worked out at 0.914, the Spicy worked out at 0.029 and the Sweet is 0.8. Also, the Pleasantness in series [2] is recorded as 5.109.

Regarding `c1cc(C2OCCO2)cs1` [Compound 102, 2-thiophen-3-yl-1,3-dioxolane], the Rating entry in series [1] is recorded as “(B)”. Besides, in series [2], the Floral is on record as 0.219, the Fruity is listed as 1.688, the Spicy was determined as 0.406 and the Sweet is listed as 1.781. Besides, in series [2], the Pleasantness amounted to 4.859.

As for `CCC1(O)C2CC3CC(C2)CC1C3` (centres unmarked) [Compound 41, 2-ethyladamantan-2-ol], in series [1], the Rating entry is “(A)”. Further, in series [2], the Floral worked out at 0.032, the Fruity is 0.032, the Spicy worked out at 0.065 and the Sweet was 0.452. The Pleasantness in series [2] was found to be 5.516.

On to `O=C1CCCN1C1CCCCC1` [Compound 879, 1-cyclohexylpyrrolidin-2-one], for which the “Rating (category of commercial prospect)” value in series [1] is recorded as “(D)”. In series [2], the Floral came out at 0, the Fruity amounted to 0, the Spicy is recorded as 0.286 and the Sweet is 0.143. Besides, the Pleasantness in series [2] is listed as 3.623.

`CC1(C)CC(=O)c2ccccc21` [Compound 988, 3,3-dimethyl-2H-inden-1-one]: the “Rating (category of commercial prospect)” value in series [1] is given as “(A)”. Besides, in series [2], the Floral is recorded as 0.625, the Fruity was 0.406, the Spicy stood at 0.312 and the Sweet stood at 0.719. In series [2], the Pleasantness worked out at 5.072.

With `CCN(O)CC` [Compound 561, N,N-diethyl hydroxylamine], the Rating entry in series [1] is given as “(D)”. Also, in series [2], the Floral amounted to 0.219, the Fruity is on record as 0, the Spicy amounted to 0.125 and the Sweet stood at 0.156. The Pleasantness in series [2] is on record as 2.978.
